In WO2012092539A2 (dated 2012):
These are yes or no findings as the source states them, for the method shown. Some entries that bind do so weakly or less than the wild type.

The chains behind the UniProt entries cited, without tags or fusion partners. Where a name states a change or a piece, a line headed by the entry shows the natural chain unless it says otherwise.
UniProt Q9NR61: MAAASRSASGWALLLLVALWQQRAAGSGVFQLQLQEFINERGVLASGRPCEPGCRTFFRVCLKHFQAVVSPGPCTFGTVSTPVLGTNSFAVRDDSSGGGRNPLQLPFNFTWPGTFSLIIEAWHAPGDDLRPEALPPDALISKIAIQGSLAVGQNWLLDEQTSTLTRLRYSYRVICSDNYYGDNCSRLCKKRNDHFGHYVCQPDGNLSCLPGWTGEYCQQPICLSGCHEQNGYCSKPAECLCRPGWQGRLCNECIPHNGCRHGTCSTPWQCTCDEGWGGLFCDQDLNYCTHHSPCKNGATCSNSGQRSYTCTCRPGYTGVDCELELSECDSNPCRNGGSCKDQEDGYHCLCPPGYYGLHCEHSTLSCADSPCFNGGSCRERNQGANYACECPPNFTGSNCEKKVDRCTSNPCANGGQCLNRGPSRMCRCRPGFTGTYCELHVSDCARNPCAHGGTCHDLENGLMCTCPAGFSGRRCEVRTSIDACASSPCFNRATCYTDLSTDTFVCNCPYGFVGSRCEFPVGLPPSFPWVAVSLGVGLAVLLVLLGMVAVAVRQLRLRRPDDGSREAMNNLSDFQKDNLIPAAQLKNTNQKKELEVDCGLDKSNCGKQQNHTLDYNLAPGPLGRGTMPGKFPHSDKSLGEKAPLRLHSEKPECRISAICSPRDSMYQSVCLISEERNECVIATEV

Legend:
human DLL4 (human) [1] = biological target: human DLL4 (human) (UniProt Q9NR61); test: Biacore A100 sandwich epitope binning, human DLL4 held by immobilized 12.73 or 12.08
human DLL4 (human) [2] = biological target: human DLL4 (human) (UniProt Q9NR61); test: Biacore A100 sandwich epitope binning, human DLL4 held by immobilized 12.55
human DLL4 (human) [3] = biological target: human DLL4 (human) (UniProt Q9NR61); test: Biacore A100 sandwich epitope binning, human DLL4 injected over immobilized antibody
human DLL4 (human) [4] = biological target: human DLL4 (human) (UniProt Q9NR61); test: Biacore A100 sandwich epitope binning, human DLL4 held by immobilized 012 BA1 or 012 BA2

binding (human DLL4 (human) [1])	binding (human DLL4 (human) [2])	binding (human DLL4 (human) [3])	binding (human DLL4 (human) [4])	Binder
binds	binds	binds	–	BA1 (antibody, V domains shown) VH: QVQLVQSGAEVKKPGASVKISCKASGYSFTAYYIHWVKQAPGQGLEWIGYISSYNGATNYNQKFKGRVTFTTDTSTSTAYMELRSLRSDDTAVYYCARDYDYDVGMDYWGQGTLVTVSS VL: DIVMTQSPDSLAVSLGERATISCRASESVDNYGISFMKWFQQKPGQPPKLLIYAASNQGSGVPDRFSGSGSGTDFTLTISSLQAEDVAVYYCQQSKEVPWTFGGGTKVEIKR
–	–	–	binds	12.73 (antibody, human IgG2, V domains shown) VH: QVQLQQWGAGLLKPSETLSLTCAVSGGSFNDEYWSWLRQTPGKGPEWIGEIHESGKTNYNPSLKPRVTISQDAPNKQFSLRLESVTAADTALYYCARLAYRDRWYGAFDVWGQGTMVTVSS VL: DIQLTQSPSSLSASVGDRVTITCQASHDITNYINWYQQKPGKAPKLLIYHTSKLQTGVPPRFSGGGSGTDFTLTISGLQPEDIATYYCQQFDNLLLTFGGGTKVDIKG
–	–	–	binds	12.14 (antibody, human IgG2, V domains shown) VH: EVQLVESGGGLVQPGGSLRLSCAASGFTFSDYAMSWVRQTPGKGLEWVSTISGSGGDTFYADSVKGRFTISRDNSKNTLYLQVNSLRAEDTAVYYCAKDKNRGAYADAFDWGQGTMVTVSS VL: QPVLTQPTSLSASPGASASLTCTLRSDINVGTYRIYWYKQKPGSPPQYLLTYKSDTDKQQGSGVPSRFSGSKDASANAGILLISELQSDDEADYHCMVWHKSAPIFGGGTKVTVLG
–	–	–	binds	12.55 (antibody, human IgG2, V domains shown) VH: EVQLVETGGGLVQPGGSLRLSCAASGFTFSDYAMSWVRQTPGKGLEWVSTISGSGGDTFYADSVKGRFTISRDNSKNTLYLQVNSLRAEDTAVYYCAKDKNRGAYADAFDIWGQGTMVTVSS VL: QAVLTQPASLSASPGASASLTCTLRSDINVATYRIYWYKQKPGSPPQYLLTYKSDSDKQQGSGVPSRFSGSKDSSANAGILLISGLQSDDEADYHCMVWHKSAPIFGGGTKVTVLG
